Among the test systems are MZ2-MEL; MeWo; RPMI7951; RVH-421; SkMel28; SkMel2; SkMel30; UACC62; WM115; WM1716; WM1745; WM3526; WM3619; WM451Lu.
Holding throughout (test): cleaved PARP positive nuclei fraction relative to DMSO control; melanoma cells; higher = more apoptosis
What all share (conditions): library dose: low library concentration; 72 h

The list shows a part of the results. Single values are uncertain, as repeats are few or missing.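 The apoptosis fraction was the count of cleaved-PARP antibody-stained nuclei relative to all DNA-stained nuclei, imaged in 1,536-well plates. Screening doses were set so most cells survived, and baseline and induced cleaved-PARP levels vary greatly across cell lines.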

Take `CNC(=O)c1cc(Oc2ccc(NC(=O)Nc3ccc(Cl)c(C(F)(F)F)c3)cc2)ccn1` [sorafenib] + Clc1ccc(Nc2nnc(Cc3ccncc3)c3ccccc23)cc1 [vatalanib] (first compound 0.4 µM, partner dose 2 µM): the “cleaved PARP positive nuclei fraction” value in the assay on MZ2-MEL amounted to 60.4%; in the assay with MeWo, 189%; in the assay with RPMI7951 it was 101%; in the assay with RVH-421 it was 223%; in the assay with SkMel28, 172%; in the assay on SkMel2 it was 79.8%. Further, the “cleaved PARP positive nuclei fraction” value in the assay on SkMel30 amounted to 23.3%; with UACC62 it was 282%; in the assay with WM115, 121%; in the assay on WM1716 it was 66.3%; in the assay on WM1745, 93.1%; with WM3526 it was 236%. The “cleaved PARP positive nuclei fraction” value is 94.5% in the assay on WM3619 and 60.5% in the assay with WM451Lu.

For the molecule `CNC(=O)c1cc(Oc2ccc(NC(=O)Nc3ccc(Cl)c(C(F)(F)F)c3)cc2)ccn1` [sorafenib] + CS(=O)(=O)CCNCc1ccc(-c2ccc3ncnc(Nc4ccc(OCc5cccc(F)c5)c(Cl)c4)c3c2)o1 [lapatinib] (first compound 0.4 µM, partner dose 0.8 µM), the “cleaved PARP positive nuclei fraction” value amounted to 69.7% in the assay with MZ2-MEL; 59% in the assay on MeWo; 139% in the assay with RPMI7951; 43.9% with RVH-421; 79.6% with SkMel28; 68.9% in the assay on SkMel2. In addition, the “cleaved PARP positive nuclei fraction” value in the assay with SkMel30 was 49.5%; in the assay with UACC62 it was 132%; in the assay on WM115, 81.7%; with WM1716 it was 28%; in the assay on WM1745 it was 89.7%; with WM3526 it was 188%. The “cleaved PARP positive nuclei fraction” value worked out at 98.9% with WM3619 and 88.3% with WM451Lu.

With `C=C(c1ccc(C(=O)O)cc1)c1cc2c(cc1C)C(C)(C)CCC2(C)C` [Bexarotene] + Nc1nc(F)nc2c1ncn2[C@@H]1O[C@H](CO)[C@@H](O)[C@@H]1O [fludarabine] (first compound 2 µM, partner dose 0.2 µM), the “cleaved PARP positive nuclei fraction” value with MZ2-MEL was 142%; in the assay with MeWo, 303%; in the assay with RPMI7951, 220%; with RVH-421, 53.2%; in the assay on SkMel28, 50.8%; with SkMel2 it was 280%. The “cleaved PARP positive nuclei fraction” value turned out to be 801% in the assay with SkMel30; 95% in the assay with UACC62; 65% in the assay on WM115; 38.3% in the assay on WM1716; 108% in the assay with WM1745; 518% in the assay with WM3526. The entries for the “cleaved PARP positive nuclei fraction” value in the assay with WM3619 and in the assay with WM451Lu were 88.6% and 140%, respectively.

Turning to `Cn1c(=O)n(-c2ccc(C(C)(C)C#N)cc2)c2c3cc(-c4cnc5ccccc5c4)ccc3ncc21` + CCCS(=O)(=O)Nc1ccc(F)c(C(=O)c2c[nH]c3ncc(Cl)cc23)c1F [PLX4720] (first compound 0.004 µM, partner dose 0.08 µM), the “cleaved PARP positive nuclei fraction” value is 42.6% in the assay with MZ2-MEL; 53.3% in the assay on MeWo; 60.8% in the assay with RPMI7951; 63.7% in the assay on RVH-421; 80% with SkMel28; 32.7% with SkMel2. In addition, the “cleaved PARP positive nuclei fraction” value with SkMel30 came to 69.1%; in the assay with UACC62, 151%; in the assay with WM115, 101%; in the assay on WM1716 it was 12.7%; with WM1745, 78%; with WM3526 it was 118%. Moreover, the figures for the “cleaved PARP positive nuclei fraction” value in the assay with WM3619 and in the assay with WM451Lu were 114% and 175%, respectively.

On to `CS(=O)(=O)CCNCc1ccc(-c2ccc3ncnc(Nc4ccc(OCc5cccc(F)c5)c(Cl)c4)c3c2)o1` [lapatinib] + Cn1c(Nc2ccc(C(F)(F)F)cc2)nc2cc(Oc3ccnc(-c4ncc(C(F)(F)F)[nH]4)c3)ccc21 [CHIR265] (first compound 0.8 µM, partner dose 0.08 µM), for which the “cleaved PARP positive nuclei fraction” value in the assay on MZ2-MEL was determined as 101%; in the assay on MeWo, 140%; in the assay with RPMI7951 it was 98.5%; in the assay on RVH-421 it was 135%; in the assay on SkMel28, 61.8%; in the assay on SkMel2, 185%. The “cleaved PARP positive nuclei fraction” value with SkMel30 worked out at 251%; in the assay on UACC62 it was 216%; with WM115 it was 420%; with WM1716 it was 168%; with WM1745, 167%; with WM3526, 428%. Also, the “cleaved PARP positive nuclei fraction” value with WM3619 came out at 126%; in the assay with WM451Lu, 280%.

As to `Nc1ncn([C@H]2C[C@H](O)[C@@H](CO)O2)c(=O)n1` [decitabine] + Cc1nc(Nc2ncc(C(=O)Nc3c(C)cccc3Cl)s2)cc(N2CCN(CCO)CC2)n1 [dasatanib] (first compound 0.1 µM, partner dose 0.004 µM), the “cleaved PARP positive nuclei fraction” value in the assay on MZ2-MEL amounted to 68.6%; in the assay on MeWo, 121%; in the assay on RPMI7951, 133%; in the assay on RVH-421, 107%; in the assay on SkMel28, 49.4%; in the assay on SkMel2, 38.3%. For the same molecule, the “cleaved PARP positive nuclei fraction” value in the assay with SkMel30 amounted to 42.7%; with UACC62 it was 85.2%; in the assay on WM115, 159%; in the assay with WM1716, 62%; with WM1745, 211%; in the assay with WM3526, 42.6%. Moreover, the “cleaved PARP positive nuclei fraction” value with WM3619 stood at 98.8%; in the assay with WM451Lu, 43.8%.

For `Cn1c(=O)n(-c2ccc(C(C)(C)C#N)cc2)c2c3cc(-c4cnc5ccccc5c4)ccc3ncc21` + C#Cc1cccc(Nc2ncnc3cc(OCCOC)c(OCCOC)cc23)c1 [erlotinib] (first compound 0.004 µM, partner dose 0.8 µM), the “cleaved PARP positive nuclei fraction” value in the assay with MZ2-MEL was found to be 78.4%; in the assay with MeWo, 52.3%; with RPMI7951, 152%; in the assay on RVH-421, 103%; in the assay with SkMel28, 99.4%; in the assay with SkMel2, 78.6%. Moreover, the “cleaved PARP positive nuclei fraction” value in the assay with SkMel30 was 36.2%; in the assay on UACC62 it was 266%; with WM115, 69.1%; in the assay with WM1716, 56.2%; with WM1745, 113%; in the assay on WM3526, 76.3%. The “cleaved PARP positive nuclei fraction” value worked out at 102% in the assay on WM3619 and 34.7% in the assay with WM451Lu.

As to `O=C(O)[C@@H]1[O][Sb](=[O])([O][Sb]2(=[O])[O][C@H]([C@H](O)CO)[C@H](O)[C@H](C(=O)O)[O]2)[O][C@H]([C@H](O)CO)[C@@H]1O` (stereo partly specified) [stibogluconate] + C=CCNC1=C2C[C@@H](C)C[C@H](OC)[C@H](O)[C@@H](C)/C=C(\C)[C@H](OC(N)=O)[C@@H](OC)/C=C\C=C(/C)C(=O)NC(=CC1=O)C2=O [Tanespimycin] (first compound 2 µM, partner dose 0.002 µM), the “cleaved PARP positive nuclei fraction” value with MZ2-MEL worked out at 57.1%; in the assay with MeWo, 116%; in the assay with RPMI7951, 49.8%; in the assay with RVH-421, 49.4%; in the assay on SkMel28 it was 77.1%; in the assay with SkMel2, 78.7%. Moreover, the “cleaved PARP positive nuclei fraction” value with SkMel30 stood at 64.6%; in the assay with UACC62, 70.7%; in the assay with WM115, 127%; in the assay on WM1716, 29%; in the assay with WM1745, 84.6%; in the assay with WM3526 it was 166%. In addition, the “cleaved PARP positive nuclei fraction” value in the assay on WM3619 came to 71.2%; in the assay on WM451Lu, 105%.

Take `CC(C)C[C@H](NC(=O)[C@H](Cc1ccccc1)NC(=O)c1cnccn1)B(O)O` [Bortezomib] + OCc1c[nH]c2ccccc12 [Indole-3-carbinol] (first compound 0.001 µM, partner dose 0.8 µM): the “cleaved PARP positive nuclei fraction” value with MZ2-MEL stood at 126%; in the assay on MeWo it was 120%; with RPMI7951 it was 119%; with RVH-421 it was 243%; in the assay with SkMel28, 174%; with SkMel2, 113%. The “cleaved PARP positive nuclei fraction” value is 109% in the assay on SkMel30; 47.7% in the assay on UACC62; 51.9% with WM115; 988% in the assay on WM1716; 109% in the assay with WM1745; 42.3% in the assay with WM3526. The results for the “cleaved PARP positive nuclei fraction” value with WM3619 and with WM451Lu were 321% and 81.3%, respectively.
